NAD/ADPR ratio data for 120 compounds are collected here from PubChem BioAssay AID1508615 (Milbrandt Lab, Department of Genetics, Washington …, 2020).

By UniProt entry, the sequences of proteins in these tests, tags left out. Where a name states a change or a piece, a line headed by the entry shows the natural chain unless it says otherwise.
UniProt Q6SZW1: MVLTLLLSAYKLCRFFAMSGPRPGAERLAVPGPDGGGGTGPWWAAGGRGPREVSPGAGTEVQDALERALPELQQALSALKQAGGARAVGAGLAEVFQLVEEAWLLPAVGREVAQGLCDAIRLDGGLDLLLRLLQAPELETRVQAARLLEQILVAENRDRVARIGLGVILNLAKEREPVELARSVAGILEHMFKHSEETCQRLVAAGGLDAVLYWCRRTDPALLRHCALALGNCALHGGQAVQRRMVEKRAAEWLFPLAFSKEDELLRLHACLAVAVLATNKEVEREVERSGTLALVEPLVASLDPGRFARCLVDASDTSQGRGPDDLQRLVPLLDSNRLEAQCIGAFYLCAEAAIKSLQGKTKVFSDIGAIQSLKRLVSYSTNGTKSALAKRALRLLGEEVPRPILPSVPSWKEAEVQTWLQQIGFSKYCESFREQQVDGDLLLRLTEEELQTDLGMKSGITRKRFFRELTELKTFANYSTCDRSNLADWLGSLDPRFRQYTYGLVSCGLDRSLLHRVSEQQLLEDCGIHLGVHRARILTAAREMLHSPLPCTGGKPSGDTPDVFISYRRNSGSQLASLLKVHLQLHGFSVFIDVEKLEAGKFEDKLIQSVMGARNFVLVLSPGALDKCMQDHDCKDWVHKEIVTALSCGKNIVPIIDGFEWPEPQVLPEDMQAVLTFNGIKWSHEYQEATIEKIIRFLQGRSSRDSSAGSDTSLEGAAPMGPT

Out of some 1,600 compounds screened, about 20 (1%) were called active.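 Rule for the calls: active = ratio of uncleaved NAD to its breakdown product ADP-ribose above 4, meaning the enzyme was inhibited; inactive = the rest.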 The list shows a part of the results.

The target of the assay is NAD(+) hydrolase SARM1 (Homo sapiens) (UniProt Q6SZW1). In words: inhibition of SAM-TIR NAD hydrolysis to ADPR – cell lysate, HPLC readout, primary screen (AID 1508615).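 Note: substrate NAD at 5 µM with 60 min at 37 °C.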 The note with it: HEK293T SAM-TIR lysate, NAD/ADPR ratio by HPLC; at 5 µM; hits give high values.
On to `COc1ccc([N+](=O)[O-])cc1NS(=O)(=O)c1ccc(C)cc1`, for which the NAD/ADPR ratio is inactive: 3.
As for `Cc1ccc(Nc2nnc(-c3ccc4c(c3)OCO4)o2)c(C)c1`, the figure is inactive: 3; as for `Oc1[nH]c(N=C2N=c3ccccc3=N2)c2ccccc12`, inactive: 3.
As for `O=c1[nH]c(=O)n2ncnc2[nH]1`, the figure is inactive: 3; as for `O=S(=O)(c1ccc2c(c1)CCCN2)N1CCCC2CCCCC21` (stereo not given), inactive: 3; as for `CC12CCC(C1)C(C)(C)C2OC(=O)c1ccccc1C(=O)O` (stereo not given), inactive: 3.
The value for `COc1ccn(C2CCCCO2)c(=O)n1` (stereo not given) was inactive: 3; that for `c1ccc(-c2nc[nH]c2-c2ccccc2)cc1` was inactive: 3; that for `CC1=CC(=O)Nc2cncnc2N1` was inactive: 3.
Take `CC(=O)N1C(=O)C2(NCC(C)N2)c2ccccc21` (stereo not given): the NAD/ADPR ratio was inactive: 3.
In the case of `CCS(=O)(=O)C1C(=O)N(C)C(S(=O)(=O)CC)C(=O)N1C` (stereo not given), the NAD/ADPR ratio is inactive: 3.
The value for `Nc1o[nH]c(=O)c1C1CCCCC1` was inactive: 3; that for `COc1cc(CC(=O)C(=O)O)oc(=O)c1` was inactive: 3; that for `CC(=O)OC1CC[C@@]2(C)C(CCC3C2CC(=O)[C@@]2(C)C3CC3CC(C)=CC(=O)C32)C1` (stereo not given in full) was inactive: 3.
The value for `CCOC(=O)/C=C/c1nc(C(=O)OCC)c(C)c(=O)[nH]1` was inactive: 3; that for `COc1cc(/C=N/Nc2nc3c([nH]2)c(=O)n(C)c(=O)n3C)ccc1O` was inactive: 3.
As for `CCCn1cnc2c(=S)nc(N)[nH]c21`, the figure is inactive: 3; as for `C=CCC(CC)C(=O)NC(=O)N1CCCc2ccccc21` (stereo not given), inactive: 3.
In the case of `O=[N+]([O-])c1ccc(/C=[N+](\[O-])CCO)o1`, the NAD/ADPR ratio is inactive: 3.
Regarding `NC(N)=NC(=S)Nc1ccc(Cl)cc1`, the NAD/ADPR ratio was inactive: 3.
The value for `NC(=S)NC(=O)c1ccccc1` was inactive: 3; that for `CCCSc1ncnc2[nH]ncc12` was inactive: 3.
The value for `CN(C)CCOc1ccc2c(c1)C(=O)/C(=C/c1ncc([N+](=O)[O-])n1C)C2` was inactive: 3; that for `Cc1ccc(Cl)cc1NC(=O)c1cc2ccccc2cc1O` was inactive: 3.
Consider `C=CCOCCN(CC)CC`, for which the NAD/ADPR ratio is inactive: 3.
On to `CCOP(=O)(OCC)/C(C#N)=C/c1ccc(-c2ccc(F)cc2F)o1`, for which the NAD/ADPR ratio is inactive: 3.
As for `O=[N+]([O-])c1ccc2[nH]c3nc4ccccc4nc3c2c1`, the figure is inactive: 3; as for `CC(C)n1cc(C#N)c(N)n1`, inactive: 3; as for `O=C1NC(=O)N2CCSC2(Cc2ccccc2)N1` (stereo not given), inactive: 3.
As for `COC(=O)Cc1[nH]c(=O)[nH]c1C(=O)OC`, the figure is inactive: 3; as for `C=C(C)C(=O)Oc1ccc(N=Nc2ccc(C)cc2)ccc1=O`, inactive: 3; as for `Cc1cc(OCCCCOc2ccc(C#N)cc2)ccc1[N+](=O)[O-]`, inactive: 3.
As for `Oc1ccc(/C=C/c2cnccn2)cc1`, the figure is inactive: 3; as for `CC12C(=O)N(c3nccs3)C(=O)C1(C)C1CCC2O1` (stereo not given), inactive: 3.
On to `CCOC(=O)c1c(N)ssc1=S`, for which the NAD/ADPR ratio is inactive: 3.
As to `CN1C(=O)CC2(C)C1=CCc1scnc12` (stereo not given), the NAD/ADPR ratio was inactive: 3.
In the case of `Cn1c(=O)c2[nH]c(SCc3ccccn3)nc2n(C)c1=S`, the NAD/ADPR ratio is inactive: 3.
The value for `O=C(N(c1ccccc1)c1ccccc1)N(c1ccccc1)c1ccccc1` was inactive: 3; that for `CCC(CC)NCCOC(=O)c1ccc([N+](=O)[O-])cc1` was inactive: 3; that for `CC12CCC(C(=Nc3ccc(N=C4C(=O)C5(C)CCC4C5(C)C)cc3)C1=O)C2(C)C` was inactive: 3.
For `O=[N+]([O-])c1cccc(/C=C/c2ccccn2)c1`, the NAD/ADPR ratio is inactive: 3.
Regarding `CC(=O)[C@@]1(O)C(C)CC2C3C=C(C)C4=Cc5c(cnn5-c5ccccc5)C[C@]4(C)C3C(O)C[C@@]21C` (stereo not given in full), the NAD/ADPR ratio is inactive: 3.
The value for `CC1=CC(C)(C)NC(=S)N1c1cccc2cc(S(=O)(=O)O)ccc12` was inactive: 3; that for `OC(C#Cc1ccccc1)(c1ccccc1)c1ccccc1` was inactive: 3; that for `CCCc1cc(=O)oc2c3c(c4c(c12)OC(C)(C)C=C4)OC(C)C(C)C3O` (stereo not given) was inactive: 3.
Consider `C1CCCC(NC2=NCCO2)CCC1`, for which the NAD/ADPR ratio was inactive: 3.
As for `O=[N+]([O-])c1ccc(Sc2cccc[n+]2[O-])c2nonc12`, the figure is active: 12.6; as for `Cc1ccc(Nc2n[nH]c(=S)s2)cc1F`, inactive: 3.
The value for `COc1ccccc1/C=C(/C#N)C(=O)O` was inactive: 3.
Consider `O=c1cc(-c2ccc(O)cc2)oc2c(O)c(O)c(O)c(O)c12`, for which the NAD/ADPR ratio is inactive: 3.
As for `CC(C)(CO)N1CCN(C(=S)Nc2ccccc2)CC1`, the figure is inactive: 3.
As for `O=C1C(CO)C(CO)C(CO)C1CO` (stereo not given), the figure is inactive: 3.
As for `Nc1cc(-c2ccccc2)ccc1O`, the figure is inactive: 3; as for `O=C1N=NC2=C1c1c3ccccc3c(O)n1CC2`, inactive: 3.
With `N#CC1=C2CCCCC2(O)NC1=O` (stereo not given), the NAD/ADPR ratio is inactive: 3.
The value for `Nc1ccccc1SC1CC(=O)N(c2ccc(Cl)c(Cl)c2)C1=O` (stereo not given) was inactive: 3; that for `Nc1ccccc1SC1CC(=O)N(c2ccccc2Cl)C1=O` (stereo not given) was inactive: 3.
As for `Nc1ccc(S(=O)(=O)Nc2cnc3ccccc3n2)cc1`, the figure is inactive: 3; as for `NC(N)=Nc1ccc(N=C(N)N)cc1`, inactive: 3.
The value for `O=c1ccn2c(n1)SC(c1ccccc1)C2` (stereo not given) was inactive: 3; that for `N#Cc1ncc(Cl)c2ccccc12` was inactive: 3; that for `Oc1ccccc1N=Cc1c(O)ccc2ccccc12` was inactive: 3.
For the compound `CCCCSc1cc(C)nc(N)n1`, the NAD/ADPR ratio is inactive: 3.
As to `CSc1nc(O)c(Nc2cccc(Cl)c2)c(=O)[nH]1`, the NAD/ADPR ratio was inactive: 3.
Turning to `O=C(Nc1ccc(Cl)cc1)Nc1cccc2nsnc12`, the NAD/ADPR ratio was inactive: 3.
`Cn1c(SCc2ccccn2)nc2c1c(=O)[nH]c(=O)n2C`: the NAD/ADPR ratio is inactive: 3.
As for `CSc1cccc(NC(=O)N2CCN(C)CC2)c1`, the figure is inactive: 3; as for `C#CCCOC(=O)Nc1ccccc1`, inactive: 3; as for `OC(c1cc(-c2ccc(C(F)(F)F)cc2)nc(C(F)(F)F)c1)C1CCCCN1` (stereo not given), inactive: 3.
The value for `NC(=S)N/N=C/c1cc(-c2cccc(N)c2)ccn1` was inactive: 3; that for `Clc1ccc(SCNc2ccccc2Cl)cc1` was inactive: 3.
The value for `N=C(N)n1c(N)nc2ccccc2c1=O` was inactive: 3; that for `c1ccc(NN(Cc2ccncc2)c2ccccc2)cc1` was inactive: 3.
With `CCCCCC(=O)C(=O)c1ccc(O)cc1O`, the NAD/ADPR ratio is inactive: 3.
`O=S1(=O)CCN(Cc2ccccn2)CC1`: the NAD/ADPR ratio is inactive: 3.
Consider `O=C(CN1CCOCC1)N1CCOCC1`, for which the NAD/ADPR ratio was inactive: 3.
For the compound `Cc1ccc(-n2nnnc2-c2cccnc2)cc1`, the NAD/ADPR ratio is inactive: 3.
Consider `CC1CC2OC(=O)C3(C)CCCC(C)(C23)C1(O)CCc1ccoc1` (stereo not given), for which the NAD/ADPR ratio was inactive: 3.
The value for `COc1ccc([N+](=O)[O-])cc1NC(=O)N(C)Cc1ccco1` was inactive: 3; that for `CC1(C)CC2(C)OC2C2(C1)N=NC(=Nc1ccccc1)O2` (stereo not given) was inactive: 3; that for `O=C(O)CCc1cccnc1` was inactive: 3.
The value for `Nc1ccccc1C(=O)Nc1ccc(Cl)cc1Cl` was inactive: 3; that for `N#Cc1cc(-c2ccccc2)[nH]c1-c1nccc2ccccc12` was inactive: 3; that for `Clc1ccccc1-c1nc(-c2ccncc2)no1` was inactive: 3.
`CC(=O)c1cc2c(cc1C)CCCC2(C)C`: the NAD/ADPR ratio is inactive: 3.
As for `N#CCS(=O)(=O)c1cccc[n+]1[O-]`, the figure is inactive: 3; as for `CC1(C)c2ccccc2-c2nc3ccccc3cc2C1O` (stereo not given), inactive: 3.
The value for `COC(=O)[C@H]1[C@H]2C[C@@H]3c4[nH]c5cc(OC)ccc5c4CCN3C[C@H]2C[C@@H](OC(=O)CC(C)=O)[C@@H]1OC` was inactive: 3; that for `C1=CC2(C=C1)OC21CCC2(C=CC3(C2)OC3C2CCCCC2)CC1` (stereo not given) was inactive: 3; that for `O=C(O)C(c1ccccc1)C1(O)CCCCC1` (stereo not given) was inactive: 3.
As for `O=c1[nH]c(C(F)(F)C(F)(F)C(F)(F)F)no1`, the figure is inactive: 3; as for `CCCCN1CCNC1=S`, inactive: 3; as for `CC(C)(C)NC(=O)c1ccc(C(=O)NC(C)(C)C)cc1`, inactive: 3.
Take `Cc1[nH]c(=O)n(C(C)C)c(=O)c1Br`: the NAD/ADPR ratio was inactive: 3.
As for `Nc1nc(N)nc(C2C=CCCC2)n1` (stereo not given), the figure is inactive: 3; as for `COC(=O)c1cncc(C)c1`, inactive: 3.
The value for `O=S(=O)(O)c1ccc2c(c1)C(C(Cl)(Cl)Cl)OC(C(Cl)(Cl)Cl)O2` (stereo not given) was inactive: 3.
The value for `CC1=C(O)C(=O)C(c2c(C)cc(C)c(Br)c2C)=C(O)C1=O` was inactive: 3; that for `NC(=O)c1ccc(Oc2ccc(C(N)=O)cc2)cc1` was inactive: 3.
Turning to `CCC(C)c1c(N)n(S(=O)(=O)c2ccc(C)cc2)oc1=O` (stereo not given), the NAD/ADPR ratio is inactive: 3.
`N#CC1C(=O)NC(=O)C(C#N)C12CCCC(C(F)(F)F)C2` (stereo not given): the NAD/ADPR ratio was inactive: 3.
The value for `CCCCOc1ccc(NC(=O)Nc2nnc(C)s2)cc1` was inactive: 3.
Regarding `O=C(O)C(Cc1c[nH]c2ccccc12)N1C(=O)c2ccccc2C1=O` (stereo not given), the NAD/ADPR ratio was inactive: 3.
As for `CC(C)(C)NC1=NCCNC(c2ccccc2)=C1`, the figure is inactive: 3.
As for `Clc1cc2c(nn1)Nc1ccccc1S2`, the NAD/ADPR ratio is inactive: 3.
As for `COc1cc(NC(=O)c2cc3ccccc3cc2O)c(OC)cc1Cl`, the figure is inactive: 3; as for `CCOC(=O)c1nc(SC)n(C)c1C(=O)OCC`, inactive: 3.
Regarding `Cc1cc2nc3ccc(=[N+](C)C)cc-3sc2cc1N`, the NAD/ADPR ratio was inactive: 3.
The value for `OC(COc1cccc2ccccc12)CN1CCN(c2ccc(Cl)cc2)CC1` (stereo not given) was inactive: 3; that for `Nc1nc(N)c2c(ccc3nccc32)[nH]1` was inactive: 3; that for `CCOC(=O)/C(C#N)=C/c1cccc(C)c1` was inactive: 3.
As for `Cn1c(=O)c2c(nc(N3CCCCC3)n2C)n(C)c1=O`, the NAD/ADPR ratio was inactive: 3.
For `O=C(Cn1nnc(N2CCCCC2)n1)N/N=C/c1ccccc1O`, the NAD/ADPR ratio is inactive: 3.
As for `Cn1nc(N)c2ncc(C(Cl)(Cl)Cl)nc21`, the figure is inactive: 3.
The value for `O=C(/C=C/c1ccccc1Cl)c1ccc(O)cc1` was inactive: 3; that for `Cc1c2cc[n+](CCN3CCCCC3)cc2c(C)c2c1[nH]c1ccc(O)cc12` was inactive: 3; that for `CC(C)(C)CC(C)(C)n1nnnc1N` was inactive: 3.
With `Oc1cc(-n2cccn2)c(O)cc1-n1cccn1`, the NAD/ADPR ratio was inactive: 3.
The value for `O=[N+]([O-])/C=C/c1cc2ccccc2[nH]1` was inactive: 3; that for `COc1ccc2nccc(/C=C/c3ccnc4ccc(OC)cc34)c2c1` was inactive: 3.
